Survivor count and T/C data for 12 compounds are collected here from PubChem BioAssay AID330 (DTP/NCI, 2004).

SMILES strings stand for the structures. The list shows only some results of the screen, not a fair sample: it is rich in T/C values a quarter to a half above the control, in often repeated tests (any T/C) and in doses without a T/C. Other doses and runs of a compound stand elsewhere. T/C is the treated group as % of the vehicle group. Some entries give survivors of the animals treated and no T/C: the source holds a T/C of zero for them, seemingly a mark for toxic or unscored doses. Some survivor counts are full or nearly so, which does not show that the dose was tolerated: survival well below the control is almost never listed, so the zero probably covers shortened survival too. Survivors were counted at the toxicity check, usually on the fifth day, unless a day is given; later deaths do not show. Schedules are NCI's codes, taken here to give the interval after Q, in days (D) or hours (H), and the number of doses after X. Some entries were tested several times; the values are given in rising order. Where survival is the endpoint, this PubChem deposit counts one and a half times the control or more as active, and values a quarter to a half above the control carry no call in these data; other NCI protocols may use other cut-offs. Some T/C values carry the count of animals alive at the toxicity check (mostly the fifth day); where none is given, no animal had died by that day.

The subject of this experiment is P388 leukemia ip, CD2F1 mice, survival T/C. The experiment can be described thus: NCI In Vivo Anticancer Drug Screen. Data for tumor model P388 Leukemia (intraperitoneal) in CD2F1 (CDF1) mice. Particulars: T/C endpoint: median survival time, higher T/C = longer survival.
Where [1] appears, read: dose: 60.0 mg/kg/injection, schedule: Q01DX005 (ip), vehicle: saline with Tween-80.
[2] abbreviates: dose: 200.0 mg/kg/injection, schedule: Q01DX005 (ip), vehicle: water.
Where [3] appears, read: dose: 240.0 mg/kg/injection, schedule: Q01DX005 (ip), vehicle: saline with Tween-80.

As for `CCn1c(=S)[nH]c2sc3c(c2c1=O)CCCCC3`, under setting [1], the survivor count is 6 of 6.

Take `O=C1CN(CCN2CC(=O)N(CN3CCOCC3)C(=O)C2)CC(=O)N1CN1CCOCC1`: the T/C (dose: 25.0 mg/kg/injection, schedule: Q01DX005 (ip), vehicle: water) was 134 % of control; the T/C (dose: 50.0 mg/kg/injection, schedule: Q01DX005 (ip), vehicle: water, evaluated on day 30) was 162, 163, 203 % of control; the T/C (dose: 50.0 mg/kg/injection, schedule: Q01DX005 (ip), vehicle: water, evaluated on day 60) is 123 % of control; the T/C (dose: 100.0 mg/kg/injection, schedule: Q01DX005 (ip), vehicle: water, evaluated on day 30) was 163, 180 [5 of 6 alive], 242 % of control; the T/C (dose: 100.0 mg/kg/injection, schedule: Q01DX005 (ip), vehicle: water, evaluated on day 60) is 186 % of control; the T/C under setting [2] was 86 [5 of 6 alive] and 198 % of control. The survivor count under setting [2] is 1 of 6 and 9 of 10.

Regarding `CCOC(=O)CN1C(=S)CSC1=S`, the survivor count (dose: 50.0 mg/kg/injection, schedule: Q01DX009 (ip), vehicle: Klucel (hydroxypropylcellulose) (HPC)) is recorded as 6 of 6.

As to `CC(=NC(C)(C)C)N1CCCCC1`, the survivor count by setting is: (dose: 100.0 mg/kg/injection, schedule: Q01DX009 (ip), vehicle: saline) 5 of 6; (dose: 200.0 mg/kg/injection, schedule: Q01DX009 (ip), vehicle: saline) 0 of 6.

Consider `CCOP(=O)(O)C1CCCC(C)[N-]1.CCOP(=O)(O)C1CCCC(C)[N-]1.[Co+2]` (configuration not stated), for which the survivor count reads like this: (dose: 200.0 mg/kg/injection, schedule: Q04DX003 (ip), vehicle: Klucel (hydroxypropylcellulose) (HPC)) 4 of 6; (dose: 400.0 mg/kg/injection, schedule: Q04DX003 (ip), vehicle: Klucel (hydroxypropylcellulose) (HPC)) 0 of 6.

On to `Cn1c(=O)c2c(nc(Br)n2C)n(C)c1=O`, for which the survivor count by setting is: (dose: 100.0 mg/kg/injection, schedule: Q01DX009 (ip), vehicle: Klucel (hydroxypropylcellulose) (HPC)) 6 of 6; (dose: 200.0 mg/kg/injection, schedule: Q01DX009 (ip), vehicle: Klucel (hydroxypropylcellulose) (HPC)) 0 of 6.

Take `COC(/C=N/OC(=O)c1ccc([N+](=O)[O-])cc1)c1ccccc1` (configuration not stated): the survivor count runs as follows: (dose: 100.0 mg/kg/injection, schedule: Q04DX003 (ip), vehicle: saline with Tween-80) 2 of 6 and 4 of 6; (dose: 200.0 mg/kg/injection, schedule: Q04DX003 (ip), vehicle: saline with Tween-80) 0 of 6 and 4 of 6; (dose: 400.0 mg/kg/injection, schedule: Q04DX003 (ip), vehicle: saline with Tween-80) 0 of 6 and 3 of 6.

With `Clc1ccc(-c2nnc3ncccn23)cc1`, the survivor count (dose: 400.0 mg/kg/injection, schedule: Q01DX001 (ip), vehicle: saline with Tween-80) is reported as 0 of 6.

With `O=C(c1ccccc1)N1OC12CCCCC2`, the survivor count (dose: 200.0 mg/kg/injection, schedule: Q01DX005 (ip), vehicle: Klucel (hydroxypropylcellulose) (HPC)) is reported as 3 of 6.

As to `CC(=O)C[C@H](c1ccccc1)c1ccccc1[C@H](C)N(C)C`, the survivor count under setting [3] is recorded as 0 of 6.

Regarding `COC(=O)C1OC(SC(=N)N)C(OC(C)=O)C(OC(C)=O)C1OC(C)=O` (configuration not stated), the survivor count is reported as 4 of 6 (dose: 100.0 mg/kg/injection, schedule: Q01DX009 (ip), vehicle: water) and 3 of 6 (dose: 200.0 mg/kg/injection, schedule: Q01DX009 (ip), vehicle: water).

As to `COC1=C(OC)C(=O)C(COC2CCCCO2)=CC1=O` (configuration not stated), the survivor count is on record as 1 of 6 (dose: 30.0 mg/kg/injection, schedule: Q01DX005 (ip), vehicle: saline with Tween-80); 0 of 6 under setting [1]; 0 of 6 (dose: 120.0 mg/kg/injection, schedule: Q01DX005 (ip), vehicle: saline with Tween-80); 0 of 6 under setting [3].
